These are yes or no findings as the source states them, for the method shown. Binding seen in cells or lysates may run through a third protein. Some binding calls cover weakened binding; strength is not graded here.
How the values were obtained:
Test in all cases: co-IP
[1] = target: Flag-GABARAP (HEK293T) (human) (UniProt O95166)
Flag-p65 (HEK293T) = Flag-p65 (HEK293T) (UniProt Q04206)
[2] = target: GABARAP, endogenous in HEK293T (human (endogenous in HEK293T)) (UniProt O95166)
[3] = target: HA-GABARAP (HEK293T) (human) (UniProt O95166)
[4] = target: p65, endogenous in HEK293T (human (endogenous in HEK293T)) (UniProt Q04206)

Sequences of proteins named here, by UniProt entry; tags and fusion partners are left off.
UniProt O95166: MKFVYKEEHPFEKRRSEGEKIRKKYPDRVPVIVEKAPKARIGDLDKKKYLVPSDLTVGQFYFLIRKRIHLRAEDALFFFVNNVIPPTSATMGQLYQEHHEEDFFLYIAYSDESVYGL
UniProt Q04206: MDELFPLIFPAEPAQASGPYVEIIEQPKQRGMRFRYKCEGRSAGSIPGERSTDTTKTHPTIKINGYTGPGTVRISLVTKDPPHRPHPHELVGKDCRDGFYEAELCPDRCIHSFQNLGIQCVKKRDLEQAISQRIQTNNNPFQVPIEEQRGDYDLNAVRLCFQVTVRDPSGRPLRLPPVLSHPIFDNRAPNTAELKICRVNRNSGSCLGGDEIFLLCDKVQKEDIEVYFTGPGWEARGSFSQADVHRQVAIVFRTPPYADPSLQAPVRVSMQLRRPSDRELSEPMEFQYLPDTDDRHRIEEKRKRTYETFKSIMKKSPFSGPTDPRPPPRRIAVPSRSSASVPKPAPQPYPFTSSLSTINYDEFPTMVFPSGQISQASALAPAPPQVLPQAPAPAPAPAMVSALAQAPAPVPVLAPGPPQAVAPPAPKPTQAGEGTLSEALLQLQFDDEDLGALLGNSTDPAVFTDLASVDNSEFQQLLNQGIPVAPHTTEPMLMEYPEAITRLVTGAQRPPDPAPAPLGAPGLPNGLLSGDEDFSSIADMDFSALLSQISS

Measured: binding

B1: WSTF, endogenous in HEK293T (protein, UniProt Q9UIG0 1-1483)
chain: MAPLLGRKPFPLVKPLPGEEPLFTIPHTQEAFRTREEYEARLERYSERIWTCKSTGSSQLTHKEAWEEEQEVAELLKEEFPAWYEKLVLEMVHHNTASLEKLVDTAWLEIMTKYAVGEECDFEVGKEKMLKVKIVKIHPLEKVDEEATEKKSDGACDSPSSDKENSSQIAQDHQKKETVVKEDEGRRESINDRARRSPRKLPTSLKKGERKWAPPKFLPHKYDVKLQNEDKIISNVPADSLIRTERPPNKEIVRYFIRHNALRAGTGENAPWVVEDELVKKYSLPSKFSDFLLDPYKYMTLNPSTKRKNTGSPDRKPSKKSKTDNSSLSSPLNPKLWCHVHLKKSLSGSPLKVKNSKNSKSPEEHLEEMMKMMSPNKLHTNFHIPKKGPPAKKPGKHSDKPLKAKGRSKGILNGQKSTGNSKSPKKGLKTPKTKMKQMTLLDMAKGTQKMTRAPRNSGGTPRTSSKPHKHLPPAALHLIAYYKENKDREDKRSALSCVISKTARLLSSEDRARLPEELRSLVQKRYELLEHKKRWASMSEEQRKEYLKKKREELKKKLKEKAKERREKEMLERLEKQKRYEDQELTGKNLPAFRLVDTPEGLPNTLFGDVAMVVEFLSCYSGLLLPDAQYPITAVSLMEALSADKGGFLYLNRVLVILLQTLLQDEIAEDYGELGMKLSEIPLTLHSVSELVRLCLRRSDVQEESEGSDTDDNKDSAAFEDNEVQDEFLEKLETSEFFELTSEEKLQILTALCHRILMTYSVQDHMETRQQMSAELWKERLAVLKEENDKKRAEKQKRKEMEAKNKENGKVENGLGKTDRKKEIVKFEPQVDTEAEDMISAVKSRRLLAIQAKKEREIQEREMKVKLERQAEEERIRKHKAAAEKAFQEGIAKAKLVMRRTPIGTDRNHNRYWLFSDEVPGLFIEKGWVHDSIDYRFNHHCKDHTVSGDEDYCPRSKKANLGKNASMNTQHGTATEVAVETTTPKQGQNLWFLCDSQKELDELLNCLHPQGIRESQLKERLEKRYQDIIHSIHLARKPNLGLKSCDGNQELLNFLRSDLIEVATRLQKGGLGYVEETSEFEARVISLEKLKDFGECVIALQASVIKKFLQGFMAPKQKRRKLQSEDSAKTEEVDEEKKMVEEAKVASALEKWKTAIREAQTFSRMHVLLGMLDACIKWDMSAENARCKVCRKKGEDDKLILCDECNKAFHLFCLRPALYEVPDGEWQCPACQPATARRNSRGRNYTEESASEDSEDDESDEEEEEEEEEEEEEDYEVAGLRLRPRKTIRGKHSVIPPAARSGRRPGKKPHSTRRSQPKAPPVDDAEVDELVLQTKRSSRRQSLELQKCEEILHKIVKYRFSWPFREPVTRDEAEDYYDVITHPMDFQTVQNKCSCGSYRSVQEFLTDMKQVFTNAEVYNCRGSHVLSCMVKTEQCLVALLHKHLPGHPYVRRKRKKFPDRLAEDEGDSEPEAVGQSRGRRQKK
binds: all assays above

— doi:10.1101/2022.10.04.510822 (bioRxiv, 2022)
